# Laboratory results as given in patent publication US3951995A, “Method for industrial production of N-substituted dipropylacetamides” (Laboratorios Made, S.A., priority 1973, dated 1976).
# Experiments:
# [1] = Acute toxicity, lethal dose 50 (LD50), intraperitoneal; conditions: rat, in vivo, ip, albino rats I.C.R. Swiss, both sexes, 24 ± 2 g, I and Diazepam suspended in acacia gum, II and III in HCl
# Source text: The lethal dose 50 (LD50) has been determined on albino rats I.C.R. Swiss, of both sexes, weighing 24 ± 2 g. The drugs have been administered by intraperitoneal way.
# [2] = test system: convulsions and lethal effect of cardiazol; assay: Anti-convulsant activity against cardiazol; type: in vivo, albino rats I.C.R. Swiss; conditions: Diazepam 3,6 mg/kg
# Experimental: There have been employed 4 lots of 10 rats per lot, which received:
# Lot (1): I 180 mg/kg and after 30 minutes cardiazol 1 mg/rat.
# Lot (2): II 35 mg/kg and after 30 minutes cardiazol 1 mg/rat.
# Lot (3): III 18 mg/kg and after 30 minutes cardiazol 1 mg/rat.
compound,measurement,setting,value
"CN1C(=O)CN=C(c2ccccc2)c2cc(Cl)ccc21 [Diazepam, reference compound]",LD50,[1],270 mg/kg
same,number of dead animals,"[2]; after 30 minutes cardiazol 1 mg/rat, 10 rats per lot, control 0",0
same,number of animals with convulsions,"[2]; after 30 minutes cardiazol 1 mg/rat, 10 rats per lot, control 8",0
same,protection against the convulsions originated by cardiazol,[2]; cardiazol 1 mg/rat,100%
